In PubChem BioAssay AID445 (National Center for Advancing Translational Sciences (NCATS), 2006) one finds AC50 data, which are given here for 62 compounds.

The list shows a part of the results. These are further read-outs of the screen, such as a control signal, another cell line or another target. No call is given for them. Most of these compounds were active or inconclusive in the main read-out, so they are no random draw. The note in brackets gives the kind of curve behind each potency; many fits are weak.

This test in a line: IkB Signaling. To be noted: ABC-DLBCL IkBa-CBG/CBR dual luciferase ratio (green luciferase fused to IkBa over red control in OCI-Ly3 lymphoma cells), 4 h. The method in brief: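 Curves were fitted separately to fusion (green), unfused (red) and ratio luminescence, then classed by r2, magnitude and activity. Cells: OCI-Ly3, 4 h compound plus doxycycline at 37C; 10 uM MG-132 defined full response.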
The mark [1] stands for this setting: measured here: control luc red channel unless noted.
The mark [2] stands for this setting: measured here: IkB-luc green channel.
The mark [3] stands for this setting: measured here: control luc red channel.

With `CCCCN(CC)C(=O)CSc1nc2c(sc3ccccc32)c(=O)n1CCc1ccccc1`, the AC50 – broadly, the concentration at which the activity in the assay is half-maximal – under setting [1] is 39.8 µM [falling, single point]. `CCOc1cccc(NC(=O)C2CC(=O)N(C)C(=Nc3ccccc3)S2)c1` (stereo not given): the AC50 under setting [1] is 31.6 µM [falling, partial curve]. Take `COC(=O)c1scc(-c2ccc(C)cc2)c1S(=O)(=O)N1CCN(c2cccc(Cl)c2)CC1`: the AC50 under setting [1] is 2 µM [falling, partial curve].

For the compound `CC(=O)N1CCc2c(sc3c2c(=O)n(-c2ccccc2C)c(=O)n3CC(=O)Nc2ccccc2)C1`, under setting [1], the concentration at half-maximal activity (AC50) is 0.2 µM [falling, full curve]. As for `Cn1c(=O)sc2cc(NS(=O)(=O)c3ccc(C(C)(C)C)cc3)ccc21`, the AC50 under setting [1] is 0.00501 µM [falling, full curve, poor fit]. Regarding `Cc1ccc(S(=O)(=O)c2nc(-c3cccs3)oc2N2CCC(C)CC2)cc1`, the half-maximal activity concentration (AC50) under setting [1] is 39.8 µM [falling, single point]. Turning to `COc1ccc(C(=O)NCc2cn3ccc(C)cc3n2)cc1`, under setting [1], the AC50 was 0.2 µM [rising, full curve, poor fit]. On the same count and under the same terms, the value for `Cc1c(C(=O)Nc2c(F)cccc2F)sc2ncn(Cc3ccccc3F)c(=O)c12` was 10 µM [falling, partial curve]; that for `N#Cc1cccc(-n2nnnc2-c2ccccn2)c1` was 12.6 µM [rising, partial curve]. As for `COc1cc2c(cc1OC)C(COc1cc(C)cc(C)c1)N(C(=O)C(C)(C)C)CC2` (stereo not given), the AC50 under setting [1] is 39.8 µM [falling, single point].

For `CCC(Nc1ccc(-c2nc(-c3ccccn3)no2)cc1[N+](=O)[O-])c1ccccc1` (stereo not given), under setting [1], the AC50 is 15.8 µM [falling, partial curve]. The same measure, in the same setting: the value for `Cc1cccc(N2CCn3c2nc2c3c(=O)n(CCCc3ccccc3)c(=O)n2C)c1` was 12.6 µM [falling, partial curve]; that for `O=C(CCCCCn1c(=O)c2sccc2n(CC(=O)Nc2ccccc2F)c1=O)NCc1ccc2c(c1)OCO2` was 6.31 µM [falling, partial curve, poor fit]. Same read-out and setting: the figure for `CC(C)Cc1ccc(S(=O)(=O)N2CCN(C(=O)c3ccco3)CC2)cc1` is 7.94 µM [falling, full curve, poor fit]. Turning to `COC(=O)c1ccc(N2C(=O)CC(Sc3n[nH]c(C)n3)C2=O)cc1` (stereo not given), the AC50 under setting [1] was 20 µM [falling, partial curve]. Still for that read-out and setting: the figure for `Nc1c(S(=O)(=O)c2cccc(Cl)c2)c2nc3ccccc3nc2n1/N=C/c1ccc(O)c(O)c1` is 12.6 µM [falling, partial curve]. Regarding `Cn1c(=O)oc2cc(S(=O)(=O)CCC(=O)NCc3ccc(Cl)cc3)ccc21`, under setting [1], the AC50 was 6.31 µM [falling, single point]. As to `Cc1nn(C(=O)c2cccs2)c(N)c1-c1ccccc1`, the concentration at half-maximal activity (AC50) under setting [1] is 2 µM [rising, partial curve].

`Cc1nn(C)c(C)c1CNC(=O)c1nn2c(c1Cl)NC(c1cccs1)CC2C(F)(F)F` (stereo not given): the AC50 under setting [1] is 15.8 µM [falling, partial curve]. For the compound `CCOCCn1ccc2c(OCC(=O)Nc3cc(C)cc(C)c3)cccc2c1=O`, the AC50 under setting [1] was 3.16 µM [rising, single point].

Consider `Cc1ccc(NC(=O)N2CC=C(c3c[nH]c4ccccc34)CC2)cc1Cl`, for which the AC50 under setting [1] is 10 µM [falling, partial curve].

Take `Cc1ccc(NS(=O)(=O)c2ccc(-n3cccn3)cc2)c(Br)c1`: the AC50 under setting [1] was 12.6 µM [falling, partial curve]. The same measure, in the same setting: the value for `COc1ccc(CC(=O)Nc2nccs2)cc1OC` was 39.8 µM [falling, single point]; that for `CCOc1ccccc1C(=O)Nc1cccc(-c2nc3ccccc3s2)c1` was 39.8 µM [falling, partial curve]; that for `COc1ccc(-c2cn3c(n2)sc2cc(C(=O)NCCc4ccccc4)ccc23)cc1` was 25.1 µM [falling, single point]. For the compound `Cc1cccc2sc(NC(=O)CNS(=O)(=O)c3ccc(Br)s3)nc12`, the half-maximal activity concentration (AC50) is 39.8 µM [rising, single point] under setting [2] and 15.8 µM [falling, partial curve] under setting [3]. For the compound `O=C(OCc1cc(=O)n2nc(C3CC3)sc2n1)c1cccc(NC(=O)c2ccccc2Cl)c1`, the AC50 under setting [1] was 25.1 µM [falling, partial curve]. On to `COc1ccc(-n2ncc(C(=O)NCc3cccs3)c2C2CCN(C(=O)OC(C)(C)C)CC2)cc1`, for which, under setting [1], the AC50 is 25.1 µM [falling, partial curve].

Consider `CCc1ccccc1N(CC)C(=O)c1cc2c(s1)-c1ccccc1SC2`, for which the AC50 under setting [1] was 15.8 µM [falling, partial curve].

Consider `O=C(Nc1ccncc1)c1c(F)cccc1F`, for which the AC50 under setting [1] is 10 µM [falling, partial curve]. Regarding `Cn1c(SCc2ccc(F)cc2)nc2ccc(C(=O)NCc3cccc(Cl)c3)cc21`, the AC50 under setting [1] was 10 µM [falling, partial curve]. `COc1ccc2c(CNC3CCC(C)CC3)c(C(=O)O)n(Cc3ccc(F)cc3)c2c1` (stereo not given): the AC50 under setting [1] is 15.8 µM [falling, partial curve]. In the case of `Cc1ccc(C(=O)NCCc2csc(-c3cccc(F)c3)n2)cc1C`, the AC50 under setting [1] was 31.6 µM [falling, single point].

Consider `COc1ccc(-c2noc(CN(C(=O)c3ccc(C)cc3C)C(C)C)n2)cc1`, for which the AC50 under setting [1] is 20 µM [falling, partial curve]. `CCOC(=O)c1ccccc1NC(=O)CSc1ccc(-c2sc(C)nc2C)nn1`: the AC50 under setting [1] was 0.00631 µM [rising, full curve, poor fit]. Regarding `CCN(C(=O)c1c(C)oc2ncnc(N3CCCCC3)c12)c1cc(C)ccc1C`, under setting [1], the concentration at half-maximal activity (AC50) is 39.8 µM [falling, single point]. Same read-out and setting: the figure for `CCOC(=O)c1cnc2c(ccc3ccccc32)c1Nc1ccccc1O` is 6.31 µM [falling, full curve]; for `COc1ccc(CNC(=O)C2CCN(S(=O)(=O)c3cccc(-c4noc(C)n4)c3)CC2)cc1` it is 5.01 µM [rising, partial curve]; for `COc1ccccc1NC(=O)CSc1nnc(-c2ccoc2C)n1CCc1ccccc1` it is 10 µM [falling, partial curve]. As to `Cc1cccc(Cn2c(CN3CCC(C(=O)NC(C)C)CC3)cc3ccccc32)c1`, the AC50 under setting [1] is 5.01 µM [falling, partial curve]. On to `Cc1ccc(NC(=O)CSCc2cc(=O)c3ccccc3[nH]2)c(C)c1`, for which, under setting [1], the AC50 is 3.16 µM [falling, single point]. In the case of `Cn1c(=O)c2c(SCc3cccnc3)nc(CC(C)(C)C)nc2n(C)c1=O`, under setting [1], the AC50 was 20 µM [falling, partial curve]. With `COc1ccc(CNC(=O)c2cc(-c3ccccc3O)n[nH]2)cc1`, the concentration at half-maximal activity (AC50) under setting [1] was 3.16 µM [falling, partial curve].

As to `Cc1cccc(Nc2nc(-c3ccccc3)nc3ccccc23)c1`, the AC50 is 20 µM [falling, partial curve] under setting [2] and 20 µM [falling, partial curve] under setting [3]. Turning to `O=S(=O)(c1ccccc1)n1nc(-c2ccco2)nc1NCc1ccccc1`, the half-maximal activity concentration (AC50) under setting [1] is 20 µM [falling, partial curve]. On to `CCC(Sc1nnc(-c2ccc(F)cc2)c(-c2ccc(F)cc2)n1)C(=O)NC1CCCC1` (stereo not given), for which the AC50 under setting [1] is 25.1 µM [falling, single point]. Take `COc1ccccc1-c1cc(C(=O)Nc2cccnc2)no1`: the AC50 under setting [2] was 6.31 µM [rising, partial curve] and the AC50 under setting [3] is 2.51 µM [falling, full curve]. Take `O=C(CSc1nc2c([nH]c3ccccc32)c(=O)n1-c1ccccc1F)Nc1cccc(Cl)c1`: the AC50 under setting [1] was 31.6 µM [falling, single point]. Still for that read-out and setting: the value for `CCC(=O)N1CCc2cc(S(=O)(=O)CCC(=O)Nc3cc(Cl)ccc3OC)ccc21` was 20 µM [falling, partial curve]. Regarding `Cc1ccc(-c2nnc3ccccc3c2C(=O)Nc2ccc(F)cc2)cc1`, under setting [1], the AC50 was 31.6 µM [falling, partial curve]. Turning to `Cc1ccccc1-n1c(C)nnc1SCc1nc2ccccc2s1`, the half-maximal activity concentration (AC50) under setting [1] is 2.51 µM [falling, partial curve].

On to `COc1ccccc1Nc1nn2c(=O)c3ccc(C(=O)NCCc4ccccc4)cc3nc2s1`, for which the AC50 under setting [1] is 10 µM [falling, partial curve]. Turning to `Cc1ccn2c(Nc3ccccc3)c(-c3c[nH]c4ccccc34)nc2c1`, under setting [1], the AC50 is 0.0251 µM [falling, full curve]. The same measure, in the same setting: the figure for `COc1ccccc1-c1nn(CCC(=O)Nc2ccc(C)cc2)c2nc(C)cc(C)c12` is 20 µM [falling, single point]; for `COc1ccc(S(=O)(=O)Nc2cccc(-c3ccc(N4CCCC4)nn3)c2)cc1F` it is 5.01 µM [falling, partial curve]. On to `O=C(CCn1c(SCC(=O)NCc2ccco2)nc2ccccc2c1=O)NCCc1ccccc1`, for which, under setting [1], the AC50 is 3.98 µM [falling, partial curve].

Regarding `CCCCCn1c(CCCNC(=O)c2ccccc2OC)nc2ccccc21`, under setting [1], the AC50 is 10 µM [falling, partial curve]. In the case of `O=C(NCc1ccccc1Cl)C1=Cc2cc(Br)ccc2OC1`, under setting [1], the AC50 is 31.6 µM [falling, partial curve].

For `CCOC(=O)c1c(C)[nH]c(C(=O)CSc2ccccc2)c1C`, the AC50 under setting [1] is 0.398 µM [rising, partial curve].

In the case of `Cc1cc(C(=O)OCC(=O)NCc2ccco2)c(C)n1-c1ccc(F)cc1`, under setting [1], the AC50 is 12.6 µM [rising, partial curve] [measured here: IkB-luc green channel].

Regarding `O=C(NCC(c1ccc2c(c1)OCO2)N1CCN(c2ccccc2)CC1)C(=O)Nc1ccccc1F` (stereo not given), the concentration at half-maximal activity (AC50) under setting [1] was 12.6 µM [falling, partial curve]. The same measure, in the same setting: the figure for `CCOc1ccc(NC(=O)CC2C(=O)N(c3ccc(OC)cc3)C(=O)N2CCC2=CCCCC2)cc1` (stereo not given) is 31.6 µM [falling, single point].
